{"source": "PubChem BioAssay AID485314", "about": "(National Center for Advancing Translational Sciences (NCATS), 2010)", "note": "The campaign covered roughly 340,000 compounds. About 4,500 (1.3%) were called active. The inconclusive results got no clear call from the source; some entries with a clear call stand among them for comparison. Calls follow the shape of the dose curve; as a rule, active = well fitted inhibition curve with a large enough effect; inconclusive = small, poorly fitted or top-dose-only effect, or another doubt; inactive = no such curve, though single readings can be large or run the other way. Potencies beside an inconclusive call are fits to weak or partial responses and may not hold up. % is scaled to controls: 0 for no effect and ±100 for the full control effect; potency is read from the fitted curve at half-maximal effect."}
{"molecular_target": "DNA polymerase beta (Homo sapiens) (UniProt P06746)", "assay": "qHTS Assay for Inhibitors of DNA Polymerase Beta", "settings": "Pol beta primer extension/strand displacement, fluorescence kinetic; activity change, negative = inhibition: at 114 µM (top of the series)", "method_in_brief": "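Curves were derived by four-parameter Hill fits of normalized qHTS data. The kinetic fluorescent primer-extension read was taken at 0 and 10 min after 50 nM substrate, following a 15 min room-temperature preincubation of 10 nM enzyme with compounds.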"}
{"smiles": "NC(=O)c1oc2ccccc2c1NC(=O)c1nc2ccccc2s1", "Potency": "inconclusive: 35.5 µM [inhibitor, single point]"}
{"smiles": "CCOc1ccccc1NC(=O)COc1ccc(S(=O)(=O)NC2CCCCC2)cc1", "Potency": "inconclusive: 56.2 µM [inhibitor, partial curve, poor fit]"}
{"smiles": "CCc1nnc(NS(=O)(=O)c2ccc(NC(=S)NC(=O)c3cccs3)cc2)s1", "Potency": "inactive"}
{"smiles": "COc1ccc2nc(SCC(=O)Nc3ccccc3)[nH]c2c1", "Potency": "active: 28.2 µM"}
{"smiles": "Clc1ccc(-c2nn3c(-c4ccccc4)nnc3s2)cc1", "Potency": "inconclusive: 17.8 µM [inhibitor, full curve]"}
{"smiles": "Cc1cc(C(=O)N/N=C/C=C/c2ccc3c(c2)OCO3)n[nH]1", "Potency": "inconclusive: 89.1 µM [inhibitor, single point]"}
{"smiles": "O=C(COC(=O)c1n[nH]c2ccccc12)NC(=O)NCc1ccco1", "Potency": "inconclusive: 25.1 µM [inhibitor, full curve, poor fit]"}
{"smiles": "CC(C)(C)c1ccc(CN2N=C(/C=C/c3ccccc3)CCC2=O)cc1", "Potency": "inconclusive: 0.1 µM [inhibitor, full curve, poor fit]"}
{"smiles": "COc1cccc2sc(N3CCN(C(=O)CCS(=O)(=O)c4ccc(F)cc4)CC3)nc12", "Potency": "inconclusive: 89.1 µM [inhibitor, single point]"}
{"smiles": "Cc1ccc(NC(=O)Cn2nnc(C(=O)NCCc3ccccc3)c2N)cc1C", "Potency": "inconclusive: 6.31 µM [inhibitor, full curve]"}
{"smiles": "CCOC(=O)c1cc2c(=O)n3cccc(C)c3nc2n(C)c1=N", "Potency": "active: 79.4 µM"}
{"smiles": "Cc1ccc(NC(=O)NCc2ccc3[nH]c(C)cc3c2)cc1", "Potency": "inconclusive: 70.8 µM [inhibitor, single point]"}
{"smiles": "O=C(N/N=C/c1ccoc1)c1cccc([N+](=O)[O-])c1", "Potency": "inconclusive: 70.8 µM [inhibitor, partial curve, poor fit]"}
{"smiles": "CCc1nc2cccnc2n1-c1ccc(C(=O)O)cc1", "Potency": "inconclusive: 12.6 µM [inhibitor, full curve, poor fit]"}
{"smiles": "Cc1ccccc1NC(=O)COC(=O)/C=C/c1cn(-c2ccccc2)nc1-c1cccnc1", "Potency": "inconclusive: 15.8 µM [inhibitor, full curve, poor fit]"}
{"smiles": "CCCNC(=O)CN1CCN(c2ncc(NC(=O)c3ccc(Cl)cc3)cc2C(=O)O)CC1", "Potency": "inconclusive: 39.8 µM [inhibitor, full curve]"}
{"smiles": "O=C(c1ccc(S(=O)(=O)Nc2cccc(C(F)(F)F)c2)cc1)N1CCOCC1", "Potency": "inconclusive: 1.41 µM [inhibitor, full curve, poor fit]"}
{"smiles": "CCCNC(=O)c1cccc(C(F)(F)F)c1", "Potency": "inconclusive: 3.16 µM [inhibitor, full curve, poor fit]"}
{"smiles": "O=C1N=C(N2C=CC(=C3C=CNC=C3)C=C2)/C(=C/N=NC(=O)c2ccccc2O)S1", "Potency": "active: 14.1 µM"}
{"smiles": "CC(C(=O)NC1C(=O)N2C(C(=O)O)=C(CSc3nnnn3C)CSC12)n1cc(Br)cn1", "note": "(configuration not stated)", "Potency": "active: 17.8 µM"}
{"smiles": "COCCNC(=O)Cn1ncc2c(C)n(Cc3ccc(C)cc3)c(C)c2c1=O", "Potency": "inconclusive: 89.1 µM [inhibitor, single point]"}
{"smiles": "COc1cccc(NC(=O)c2c(C(=O)Nc3ccccc3)sc3nc(C)cc(=O)n23)c1", "Potency": "inactive"}
{"smiles": "CCOC(=O)COc1ccc(S(=O)(=O)NC2CC2)cc1", "Potency": "inconclusive: 39.8 µM [inhibitor, single point]"}
{"smiles": "COCCCN(C(=O)c1cc2c(s1)CCC2)c1c(N)n(Cc2ccccc2)c(=O)[nH]c1=O", "Potency": "active: 12.6 µM"}
{"smiles": "COc1ccc(-n2nc(C(=O)NCC(=O)Nc3cccc(Cl)c3)c3ccccc3c2=O)cc1OC", "Potency": "active: 25.1 µM"}
{"smiles": "CCOC(=O)c1c(Cl)c(C)nn1-c1nc(OC)cc(OC)n1", "Potency": "inconclusive: 89.1 µM [inhibitor, single point]"}
{"smiles": "Cc1csc(NC(=O)CN(C)S(=O)(=O)c2cccc3cccnc23)n1", "Potency": "inconclusive: 100 µM [inhibitor, partial curve, poor fit]"}
{"smiles": "COc1ccc2oc(-c3ccc(C)c(NC(=O)c4ccc(N5CCCCC5)c([N+](=O)[O-])c4)c3)nc2c1", "Potency": "inactive"}
{"smiles": "COc1ccccc1NC(=O)C1=C(C)Nc2ncnn2C1c1ccc[nH]1", "note": "(configuration not stated)", "Potency": "active: 15.8 µM"}
{"smiles": "O=C(c1cc2c(s1)CCC2)N1CCN(c2ccccc2)CC1", "Potency": "active: 17.8 µM"}
{"smiles": "CC(C)(C)C(=O)Cn1ncc(Br)c(Br)c1=O", "Potency": "inactive"}
{"smiles": "O=C(NNc1ccccc1[N+](=O)[O-])Nc1ccc(Cl)c(Cl)c1", "Potency": "inactive"}
{"smiles": "Cc1ccc(-n2nnnc2SCC(=O)Nc2sccc2C#N)cc1", "Potency": "inconclusive: 39.8 µM [inhibitor, partial curve]"}
{"smiles": "CCN1/C(=C/c2cc[n+](CCCS(=O)(=O)[O-])c3ccccc23)Sc2ccccc21", "Potency": "inconclusive: 31.6 µM [inhibitor, full curve, poor fit]"}
{"smiles": "COc1ccc(-c2[nH]c(-c3ccc(F)cc3)nc2SCC(=O)Nc2ccc(OC)c(OC)c2)cc1", "Potency": "inactive"}
{"smiles": "O=C(CSc1nnc(-c2ccco2)o1)N1CCN(c2ccccc2)CC1", "Potency": "inconclusive: 0.126 µM [inhibitor, full curve, poor fit]"}
{"smiles": "Cc1cc(N)n(-c2ccc(Oc3ccccc3)c(S(=O)(=O)O)c2)n1", "Potency": "active: 14.1 µM"}
{"smiles": "C#CCOc1c(/C=C\\c2nc(O)c([N+](=O)[O-])c(=O)[nH]2)cc(Br)cc1OC", "Potency": "inconclusive: 50.1 µM [inhibitor, single point]"}
{"smiles": "Cc1cc(-c2n[nH]c(=S)n2/N=C/c2ccco2)n[nH]1", "Potency": "inconclusive: 63.1 µM [inhibitor, single point]"}
{"smiles": "N#C/C(=C\\c1ccc(O)c(O)c1)C(=O)N1CCCC1", "Potency": "inactive"}
{"smiles": "S=c1[nH]nc(-c2ccccc2Cl)n1/N=C/C=C/c1ccco1", "Potency": "active: 20 µM"}
{"smiles": "Cc1cc(C)c2cc3c(N)c(C(=O)Nc4c(C)[nH]c(=O)[nH]c4=O)sc3nc2c1", "Potency": "inconclusive: 39.8 µM [inhibitor, single point]"}
{"smiles": "COc1ccccc1NC(=O)Oc1ccc(NC(=O)c2ccco2)cc1", "Potency": "inconclusive: 22.4 µM [inhibitor, full curve]"}
{"smiles": "O=C1CC(c2ccc(Cl)cc2)SC(N(c2ccccc2)c2ccccc2)=N1", "note": "(configuration not stated)", "Potency": "inconclusive: 100 µM [inhibitor, single point]"}
{"smiles": "CCOC(=O)c1ccc(OCC2c3cc(OC)c(OC)cc3CCN2C(=O)Cc2ccc(OC)c(OC)c2)cc1", "note": "(configuration not stated)", "Potency": "inactive"}
{"smiles": "COc1cc(/C=C2/C(=N)N3C=CSC3=NC2=O)ccc1OCCCOc1cc(C)ccc1C", "Potency": "inconclusive: 17.8 µM [inhibitor, partial curve, poor fit]"}
{"smiles": "COc1ccccc1-c1noc(-c2ccc(NCCc3ccccc3)c([N+](=O)[O-])c2)n1", "Potency": "inactive"}
{"smiles": "CCOC1=C/C(=C/c2c(N)n3nc(CC(=O)N4CCCCC4)sc3nc2=O)C=CC1=O", "Potency": "inactive"}
{"smiles": "CC(=O)c1cc(-c2ccccc2)n(CC(=O)N2CCC(N3CCCCC3)CC2)c1C", "Potency": "inconclusive: 79.4 µM [inhibitor, single point]"}
{"smiles": "Cc1ccc(S(=O)(=O)Nc2csc(C)c2C(=O)O)cc1", "Potency": "active: 8.91 µM"}
{"smiles": "COc1ccc(NC(=O)c2c(C)oc3ccc(O)c(CN4CCCC(C)C4)c23)cc1Cl", "note": "(configuration not stated)", "Potency": "inconclusive: 89.1 µM [inhibitor, single point]"}
{"smiles": "CCc1ncc(/C=C2\\C(=O)Nc3ccccc32)[nH]1", "Potency": "inconclusive: 89.1 µM [inhibitor, single point]"}
{"smiles": "COc1ccc(N2CCN(C(=O)c3ccc(CS(=O)Cc4ccc(C)cc4)o3)CC2)cc1", "note": "(configuration not stated)", "activity change, negative = inhibition": "inconclusive: -31.7% [inhibitor]"}
{"smiles": "O=C(Cn1cnc2c(oc3ccccc32)c1=O)NCc1ccccc1", "Potency": "active: 25.1 µM"}
{"smiles": "Cc1ccccc1Cn1c(NC2CCCC2)nc2c1c(=O)[nH]c(=O)n2C", "Potency": "inconclusive: 89.1 µM [inhibitor, single point]"}
{"smiles": "Cc1ccc(CC2CC(=O)N(c3nc4ccccc4s3)C2=O)cc1", "note": "(configuration not stated)", "Potency": "inconclusive: 17.8 µM [inhibitor, full curve, poor fit]"}
{"smiles": "COc1cc(NC(=O)C2CC(c3cccc(Br)c3)=NO2)cc(OC)c1OC", "note": "(configuration not stated)", "Potency": "inconclusive: 3.16 µM [inhibitor, full curve, poor fit]"}
{"smiles": "CCOC(=O)C1CCN(C(=O)c2cccnc2Oc2ccc(Cl)cc2)CC1", "Potency": "inconclusive: 0.141 µM [inhibitor, full curve, poor fit]"}
{"smiles": "O=C(c1ccc(Cl)s1)N1CCc2ccccc21", "Potency": "inconclusive: 89.1 µM [inhibitor, single point]"}
{"smiles": "Cc1cccc(CS(=O)(=O)CC2Nc3ccc(C(=O)NCc4ccccc4Cl)cc3NC2=O)c1", "note": "(configuration not stated)", "Potency": "inconclusive: 22.4 µM [inhibitor, partial curve, poor fit]"}
{"smiles": "COc1ccc(N2CC(C(=O)Nc3nnc(SCC(=O)NC4CCCC4)s3)CC2=O)cc1", "note": "(configuration not stated)", "Potency": "inconclusive: 39.8 µM [inhibitor, single point]"}
{"smiles": "COc1ccc(-c2noc(-c3ccc(NC4CCCCC4)c([N+](=O)[O-])c3)n2)cc1OC", "Potency": "inactive"}
{"smiles": "Cc1ccc(C)c(NC(=O)CSc2nncn3c2cc2sccc23)c1", "Potency": "inactive"}
{"smiles": "Cc1cc(NC(=O)CSc2sc3c(O)cc(=O)[nH]c3c2C#N)ccc1Br", "Potency": "inconclusive: 56.2 µM [inhibitor, partial curve]"}
{"smiles": "O=C(Cn1c(=O)n(Cc2ccc(F)cc2)c(=O)c2sc3ccccc3c21)NCc1ccccc1Cl", "Potency": "inactive"}
{"smiles": "CN(C)CCNC(=O)C1CC(=O)N(c2ccc(F)c(Cl)c2)C1", "note": "(configuration not stated)", "Potency": "inconclusive: 89.1 µM [inhibitor, single point]"}
{"smiles": "COc1cc(/C=N/Nc2nc3ccccc3[nH]c2=O)ccc1O", "Potency": "inconclusive: 50.1 µM [inhibitor, partial curve]"}
